Data taken from publication PMC9007350, “Aurintricarboxylic acid is a canonical disruptor of the TAZ-TEAD transcriptional complex” (PLoS ONE, 2022).
Where two headings read alike, the source gives them in different places. The source gives many values for each of these; only a part stands here.

System: TC/TEAD transcriptional profile in TC-expressing NIH3T3 cells
Test: Bulk RNA-Seq, differential gene expression and GSEA (TC ATA v. TC DMSO)
Type: cell-based, murine
Procedure: NIH3T3 and HEK293 cells were obtained from the American Type Tissue Collection (ATCC, Manassas, VA) and cultured in DMEM containing 10% fetal bovine serum and penicillin/streptomycin. A TEAD dual luciferase reporter assay was performed as previously described. Cells were treated with vehicle control or ATA (10 μM) for 48 h before measuring the luciferase activity or processing the samples for RNA extraction. Each experiment was repeated at least 2-3 times. NIH3T3 cells were used. The extracted RNA (RNeasy Mini, Qiagen) from treated cells was either used for qPCR measurements or sent for bulk RNA-Seq. Sequencing runs were performed on an Illumina HiSeq 4000 sequencer (Genewiz). Subsequent bioinformatics analysis was performed in the Galaxy Project platform. Paired end reads were aligned to the murine genome ([…]2 [27]. Raw count files were generated with featureCounts using a corresponding GTF reference. Differential gene expression analysis was performed with DESeq2 [29]. Transcripts were considered to be differentially expressed if the false discovery rate < 0.05 and Log2FC > 2. When performing differential gene expression for GSEA analysis, the Limma package was used (<5 CPM filtering) with t-scores used for rank statistics. GSEA plots and statistics were generated with FGSEA with custom gene sets. Raw sequencing reads and processed files have been deposited in the GEO repository (data will be uploaded upon manuscript acceptance). The Universal Probe Library probes (Roche) and the associated primer sequences for the qPCR targets are listed below: […]

SMILES: O=C(O)C1=CC(=C(c2ccc(O)c(C(=O)O)c2)c2ccc(O)c(C(=O)O)c2)C=CC1=O [ATA, aurintricarboxylic acid]
- Log2 Fold Change: 0.2045
- Log2 Fold Change (3425401B19Rik, TC ATA v. TC DMSO): 0.7409
- Log2 Fold Change (8030462N17Rik, TC ATA v. TC DMSO): -0.2874
- Log2 Fold Change (Aatf, TC ATA v. TC DMSO): -0.2352
- Log2 Fold Change (Abhd4, TC ATA v. TC DMSO): 0.3011
- Log2 Fold Change (Acap3, TC ATA v. TC DMSO): 0.2894
- Log2 Fold Change (Accsl, TC ATA v. TC DMSO): 1.273
- Log2 Fold Change (Acot7, TC ATA v. TC DMSO): -0.2635
- Log2 Fold Change (Adam10, TC ATA v. TC DMSO): 0.2386
- Log2 Fold Change (Adam19, TC ATA v. TC DMSO): -0.2723
- Log2 Fold Change (Adamts7, TC ATA v. TC DMSO): -0.3907
- Log2 Fold Change (Add2, TC ATA v. TC DMSO): -1.031
- Log2 Fold Change (Agps, TC ATA v. TC DMSO): -0.2024
- Log2 Fold Change (Akap12, TC ATA v. TC DMSO): 0.3156
- Log2 Fold Change (Anks1b, TC ATA v. TC DMSO): -0.4283
- Log2 Fold Change (Ano10, TC ATA v. TC DMSO): 0.3064
- Log2 Fold Change (App, TC ATA v. TC DMSO): 0.218
- Log2 Fold Change (Arhgap20, TC ATA v. TC DMSO): 0.5197
- Log2 Fold Change (Arrb1, TC ATA v. TC DMSO): 0.3521
- Log2 Fold Change (Arrdc3, TC ATA v. TC DMSO): 0.2956
- Log2 Fold Change (Asb2, TC ATA v. TC DMSO): 0.5435
- Log2 Fold Change (Atp6ap2, TC ATA v. TC DMSO): 0.2427
- Log2 Fold Change (Atp8b2, TC ATA v. TC DMSO): 0.2261
- Log2 Fold Change (Atraid, TC ATA v. TC DMSO): 0.3834
- Log2 Fold Change (Bdkrb1, TC ATA v. TC DMSO): 1.219
- Log2 Fold Change (Btg2, TC ATA v. TC DMSO): 0.4034
- Log2 Fold Change (Btn1a1, TC ATA v. TC DMSO): -0.7404
- Log2 Fold Change (C1rl, TC ATA v. TC DMSO): 0.738
- Log2 Fold Change (Cacna1s, TC ATA v. TC DMSO): 0.5059
- Log2 Fold Change (Calhm2, TC ATA v. TC DMSO): 0.5559
- Log2 Fold Change (Capn2, TC ATA v. TC DMSO): -0.193
- Log2 Fold Change (Card19, TC ATA v. TC DMSO): 0.3138
- Log2 Fold Change (Casp12, TC ATA v. TC DMSO): 0.3191
- Log2 Fold Change (Cd36, TC ATA v. TC DMSO): 0.9953
- Log2 Fold Change (Cd44, TC ATA v. TC DMSO): -0.2149
- Log2 Fold Change (Cdc42se1, TC ATA v. TC DMSO): 0.2445
- Log2 Fold Change (Cdk18, TC ATA v. TC DMSO): -0.2357
- Log2 Fold Change (Celf5, TC ATA v. TC DMSO): 0.4618
- Log2 Fold Change (Cers5, TC ATA v. TC DMSO): 0.2188
- Log2 Fold Change (Clic5, TC ATA v. TC DMSO): 0.7796
- Log2 Fold Change (Cmtm3, TC ATA v. TC DMSO): 0.2156
- Log2 Fold Change (Col6a2, TC ATA v. TC DMSO): 0.3379
- Log2 Fold Change (Coq10a, TC ATA v. TC DMSO): 0.4029
- Log2 Fold Change (Cplx2, TC ATA v. TC DMSO): 0.2813
- Log2 Fold Change (Crebrf, TC ATA v. TC DMSO): 0.3555
- Log2 Fold Change (Crocc2, TC ATA v. TC DMSO): 0.6594
- Log2 Fold Change (Ctdsp2, TC ATA v. TC DMSO): 0.2516
- Log2 Fold Change (Ctsk, TC ATA v. TC DMSO): 0.4047
- Log2 Fold Change (Cxxc5, TC ATA v. TC DMSO): 0.3278
- Log2 Fold Change (Cyp2j6, TC ATA v. TC DMSO): 0.4082
- Log2 Fold Change (Dagla, TC ATA v. TC DMSO): -0.2839
- Log2 Fold Change (Dctd, TC ATA v. TC DMSO): -0.2607
- Log2 Fold Change (Ddx18, TC ATA v. TC DMSO): -0.2011
- Log2 Fold Change (Dgkz, TC ATA v. TC DMSO): -0.2256
- Log2 Fold Change (Dnajc3, TC ATA v. TC DMSO): 0.2583
- Log2 Fold Change (Dusp3, TC ATA v. TC DMSO): -0.2618
- Log2 Fold Change (Dusp5, TC ATA v. TC DMSO): -0.3501
- Log2 Fold Change (Eif2ak3, TC ATA v. TC DMSO): 0.3149
- Log2 Fold Change (Elmod3, TC ATA v. TC DMSO): 0.4179
- Log2 Fold Change (Emp1, TC ATA v. TC DMSO): -0.2395
- Log2 Fold Change (Eno2, TC ATA v. TC DMSO): 0.4152
- Log2 Fold Change (Enpp1, TC ATA v. TC DMSO): -0.3155
- Log2 Fold Change (Entpd5, TC ATA v. TC DMSO): 0.3022
- Log2 Fold Change (Epha2, TC ATA v. TC DMSO): -0.2242
- Log2 Fold Change (Erlec1, TC ATA v. TC DMSO): 0.2838
- Log2 Fold Change (Eya1, TC ATA v. TC DMSO): 0.3551
- Log2 Fold Change (F2r, TC ATA v. TC DMSO): 0.2295
- Log2 Fold Change (Fabp4, TC ATA v. TC DMSO): 0.7675
- Log2 Fold Change (Fam50a, TC ATA v. TC DMSO): 0.2362
- Log2 Fold Change (Fam171a1, TC ATA v. TC DMSO): -0.2264
- Log2 Fold Change (Fam234a, TC ATA v. TC DMSO): 0.2879
- Log2 Fold Change (Fkbp7, TC ATA v. TC DMSO): 0.3474
- Log2 Fold Change (Fuca2, TC ATA v. TC DMSO): 0.2852
- Log2 Fold Change (Fxyd6, TC ATA v. TC DMSO): 1.236
- Log2 Fold Change (Glul, TC ATA v. TC DMSO): -0.2652
- Log2 Fold Change (Gm2451, TC ATA v. TC DMSO): -0.6661
- Log2 Fold Change (Gm4841, TC ATA v. TC DMSO): -1.1029
- Log2 Fold Change (Gm6741, TC ATA v. TC DMSO): 1.204
- Log2 Fold Change (Gm10359, TC ATA v. TC DMSO): -0.7348
- Log2 Fold Change (Gm11478, TC ATA v. TC DMSO): -0.6635
- Log2 Fold Change (Gm12684, TC ATA v. TC DMSO): 1.198
- Log2 Fold Change (Gm14046, TC ATA v. TC DMSO): 1.114
- Log2 Fold Change (Gm21680, TC ATA v. TC DMSO): 1.106
- Log2 Fold Change (Gm43154, TC ATA v. TC DMSO): -1.088
- Log2 Fold Change (Gm47223, TC ATA v. TC DMSO): 0.4394
- Log2 Fold Change (Gpc6, TC ATA v. TC DMSO): 0.4134
- Log2 Fold Change (Gpr149, TC ATA v. TC DMSO): -1.21
- Log2 Fold Change (Gpr153, TC ATA v. TC DMSO): 0.3215
- Log2 Fold Change (Gria3, TC ATA v. TC DMSO): 0.3582
- Log2 Fold Change (H4c4, TC ATA v. TC DMSO): -1.216
- Log2 Fold Change (Hbegf, TC ATA v. TC DMSO): -0.311
- Log2 Fold Change (Hbp1, TC ATA v. TC DMSO): 0.319
- Log2 Fold Change (Herc3, TC ATA v. TC DMSO): 0.3669
- Log2 Fold Change (Hoxa2, TC ATA v. TC DMSO): 0.4667
- Log2 Fold Change (Hsd17b11, TC ATA v. TC DMSO): 0.346
- Log2 Fold Change (Hsp90aa1, TC ATA v. TC DMSO): -0.2026
- Log2 Fold Change (Hspd1, TC ATA v. TC DMSO): -0.2284
- Log2 Fold Change (Ier2, TC ATA v. TC DMSO): 0.3913
- Log2 Fold Change (Ift81, TC ATA v. TC DMSO): 0.313
- Log2 Fold Change (Iigp1, TC ATA v. TC DMSO): -1.2476
- Log2 Fold Change (Il1rl2, TC ATA v. TC DMSO): 0.3914
- Log2 Fold Change (Il6st, TC ATA v. TC DMSO): 0.2694
- Log2 Fold Change (Ing5, TC ATA v. TC DMSO): -0.2587
- Log2 Fold Change (Insig2, TC ATA v. TC DMSO): 0.2804
- Log2 Fold Change (Itga6, TC ATA v. TC DMSO): -0.231
- Log2 Fold Change (Itm2c, TC ATA v. TC DMSO): 0.2782
- Log2 Fold Change (Jmjd4, TC ATA v. TC DMSO): -0.2865
- Log2 Fold Change (Kbtbd8, TC ATA v. TC DMSO): -0.558
- Log2 Fold Change (Kcna4, TC ATA v. TC DMSO): 0.5662
- Log2 Fold Change (Kcnn4, TC ATA v. TC DMSO): -0.2769
- Log2 Fold Change (Kirrel, TC ATA v. TC DMSO): 0.2228
- Log2 Fold Change (Klf4, TC ATA v. TC DMSO): 0.2452
